Test results as given in PubChem BioAssay AID330 (DTP/NCI, 2004).
The list shows only some results of the screen, not a fair sample: it is rich in T/C values a quarter to a half above the control, in often repeated tests (any T/C) and in doses without a T/C. Other doses and runs of a compound stand elsewhere. T/C: endpoint of the treated group in % of that of the vehicle group. Some entries give survivors of the animals treated and no T/C: the source holds a T/C of zero for them, seemingly a mark for toxic or unscored doses. Some survivor counts are full or nearly so, which does not show that the dose was tolerated: the source hardly ever lists a survival T/C far under the control, and the zero likely stands for such cases as well. Counts of survivors are from the toxicity check (mostly the fifth day) where no day follows; animals may have died later. Schedule codes are those of the source, taken here to give the interval after Q, in days (D) or hours (H), and the number of doses after X. For survival time, this PubChem deposit counts one and a half times the control or more as active, and values a quarter to a half above the control carry no call in these data; other NCI protocols may use other cut-offs. Some doses were run more than once; the values are given in rising order. Some T/C values carry the count of animals alive at the toxicity check (mostly the fifth day); without a count, all were alive then.

System: P388 leukemia ip, CD2F1 mice, survival T/C
Test: NCI In Vivo Anticancer Drug Screen. Data for tumor model P388 Leukemia (intraperitoneal) in CD2F1 (CDF1) mice
Details: T/C endpoint: median survival time, higher T/C = longer survival
[1] = dose: 240.0 mg/kg/injection, schedule: Q01DX005 (ip), vehicle: saline with Tween-80
[2] = dose: 100.0 mg/kg/injection, schedule: Q01DX005 (ip), vehicle: saline with Tween-80
[3] = dose: 50.0 mg/kg/injection, schedule: Q01DX009 (ip), vehicle: saline with Tween-80
[4] = dose: 100.0 mg/kg/injection, schedule: Q01DX009 (ip), vehicle: saline with Tween-80
[5] = dose: 200.0 mg/kg/injection, schedule: Q01DX009 (ip), vehicle: saline with Tween-80
[6] = dose: 25.0 mg/kg/injection, schedule: Q01DX005 (ip), vehicle: saline with Tween-80
[7] = dose: 50.0 mg/kg/injection, schedule: Q01DX005 (ip), vehicle: saline with Tween-80
[8] = dose: 240.0 mg/kg/injection, schedule: Q01DX005 (ip), vehicle: Klucel (hydroxypropylcellulose) (HPC)
[9] = dose: 400.0 mg/kg/injection, schedule: Q01DX009 (ip), vehicle: saline with Tween-80
[10] = dose: 200.0 mg/kg/injection, schedule: Q01DX005 (ip), vehicle: saline + Tween-80 + alcohol
[11] = dose: 200.0 mg/kg/injection, schedule: Q01DX005 (ip), vehicle: saline with Tween-80
[12] = dose: 50.0 mg/kg/injection, schedule: Q01DX005 (ip), vehicle: saline

CC(=O)N=c1sccn1CC(O)c1ccccc1 (stereo unspecified)
survivor count (dose: 100.0 mg/kg/injection, schedule: Q01DX001 (ip), vehicle: Klucel (hydroxypropylcellulose) (HPC)): 6 of 6

O=C(O)Cc1c[nH]c2c(Cl)ccc(Cl)c12
survivor count (dose: 400.0 mg/kg/injection, schedule: Q01DX001 (ip), vehicle: saline with Tween-80): 0 of 6

C[C@H](CCC1=NC(C)(C)CO1)C1CCC2[C@@H]3C(O)C[C@@H]4CC(O)CC[C@]4(C)C3CC[C@@]21C (stereo partly specified)
survivor count [1]: 6 of 6

O=S(=O)(CBr)OCCCl
T/C [2]: 128 % of control

O=C(O)/C=N/NS(=O)(=O)c1cccs1
T/C (dose: 25.0 mg/kg/injection, schedule: Q01DX009 (ip), vehicle: other): 127 % of control | T/C (dose: 25.0 mg/kg/injection, schedule: Q01DX009 (ip), vehicle: water): 130 % of control | T/C (dose: 50.0 mg/kg/injection, schedule: Q01DX009 (ip), vehicle: other): 137 % of control | T/C (dose: 50.0 mg/kg/injection, schedule: Q01DX009 (ip), vehicle: water): 130 % of control | T/C (dose: 100.0 mg/kg/injection, schedule: Q01DX009 (ip), vehicle: other): 149 % of control | T/C (dose: 100.0 mg/kg/injection, schedule: Q01DX009 (ip), vehicle: water): 136 % of control | survivor count (dose: 200.0 mg/kg/injection, schedule: Q01DX009 (ip), vehicle: other): 2 of 6 | survivor count (dose: 200.0 mg/kg/injection, schedule: Q01DX009 (ip), vehicle: water): 4 of 6 | survivor count (dose: 400.0 mg/kg/injection, schedule: Q01DX009 (ip), vehicle: other): 1 of 6 | survivor count (dose: 400.0 mg/kg/injection, schedule: Q01DX009 (ip), vehicle: water): 0 of 6

Cc1cc(N=[N+]=[N-])c2ccccc2n1
survivor count [1]: 0 of 6

CCCCCCCCCCCCCCCC(=O)O[C@@H]1[C@@H](C)[C@@]2(O)[C@@H](C=C(CO)C[C@]3(O)C(=O)C(C)=C[C@@H]23)[C@H]2[C@]1(OC(C)=O)[C@]2(C)CO
T/C (dose: 0.25 mg/kg/injection, schedule: Q01DX005 (ip), vehicle: distilled water + Tween-80): 135 % of control | T/C (dose: 0.5 mg/kg/injection, schedule: Q01DX005 (ip), vehicle: distilled water + Tween-80): 130 % of control [4 of 6 alive] | survivor count (dose: 1.0 mg/kg/injection, schedule: Q01DX005 (ip), vehicle: distilled water + Tween-80): 0 of 6

O=C(NO)C1CCCCC1O (stereo unspecified)
survivor count (dose: 100.0 mg/kg/injection, schedule: Q04DX003 (ip), vehicle: saline): 6 of 6 | survivor count (dose: 200.0 mg/kg/injection, schedule: Q04DX003 (ip), vehicle: saline): 6 of 6

CC1(C)OC(=O)NC1c1ccccc1 (stereo unspecified)
survivor count [3]: 2 of 6 | survivor count [4]: 0 of 6 | survivor count [5]: 0 of 6

CN=C(N)N/N=C(\C)c1ccc2c(ccc3ccccc32)c1
T/C (dose: 25.0 mg/kg/injection, schedule: Q04DX002 (ip), vehicle: saline with Tween-80): 125 and 138 % of control | T/C (dose: 50.0 mg/kg/injection, schedule: Q04DX002 (ip), vehicle: saline with Tween-80): 125 and 134 % of control | T/C (dose: 100.0 mg/kg/injection, schedule: Q04DX002 (ip), vehicle: saline with Tween-80): 134 % of control | survivor count (dose: 200.0 mg/kg/injection, schedule: Q04DX002 (ip), vehicle: saline with Tween-80): 4 of 6

O=C(NC1CCOC1=O)c1ccc(N=C=S)cc1 (stereo unspecified)
survivor count (dose: 200.0 mg/kg/injection, schedule: Q04DX003 (ip), vehicle: Klucel (hydroxypropylcellulose) (HPC)): 2 of 6 | survivor count (dose: 400.0 mg/kg/injection, schedule: Q04DX003 (ip), vehicle: Klucel (hydroxypropylcellulose) (HPC)): 0 of 6

Cc1ccc(-n2c(=O)[nH]c3ccccc3c2=O)cc1[N+](=O)[O-]
survivor count [6]: 5 of 5 | survivor count [7]: 6 of 6 | survivor count [2]: 6 of 6

CSc1nc(N)c(NS(=O)(=O)c2ccc([N+](=O)[O-])cc2)c(=O)[nH]1
survivor count (dose: 120.0 mg/kg/injection, schedule: Q01DX005 (ip), vehicle: Klucel (hydroxypropylcellulose) (HPC)): 6 of 6 | survivor count [8]: 6 of 6

COc1ccc(C=C2C(=O)N(C)C(=O)N(C)C2=O)cc1
T/C [5]: 126 % of control | survivor count [9]: 5 of 6

COC(=O)CC1(O)C(=O)OCc2c1cc1n(c2=O)Cc2c-1nc1ccccc1c2OC (stereo unspecified)
T/C (dose: 50.0 mg/kg/injection, schedule: Q01DX009 (ip), vehicle: saline): 127 % of control | survivor count (dose: 50.0 mg/kg/injection, schedule: Q01DX009 (ip), vehicle: suspension in saline): 6 of 6 | survivor count (dose: 200.0 mg/kg/injection, schedule: Q01DX009 (ip), vehicle: suspension in saline): 6 of 6

CNC(=S)C#N
T/C (dose: 100.0 mg/kg/injection, schedule: Q01DX005 (ip), vehicle: saline + Tween-80 + alcohol): 130 % of control | T/C [10]: 125 % of control | survivor count [10]: 0 of 6

CC(C)CCc1cc(O)c(CCC(C)C)cc1O
survivor count (dose: 12.5 mg/kg/injection, schedule: Q01DX009 (ip), vehicle: saline with Tween-80): 6 of 6 | survivor count (dose: 25.0 mg/kg/injection, schedule: Q01DX009 (ip), vehicle: saline with Tween-80): 6 of 6 | survivor count [3]: 6 of 6 | survivor count [5]: 6 of 6

Cn1cccc1/C=N/N1CC(=O)N(c2cccc(C(F)(F)F)c2)CC1=O
survivor count [6]: 0 of 6 | survivor count [7]: 0 of 6 | survivor count [2]: 0 of 6 | survivor count [11]: 0 of 6

CCOC(=O)C1(Br)CCCCC1Br (stereo unspecified)
T/C [3]: 125 % of control | survivor count [5]: 6 of 6

CCC(C)Sc1nc(N)nc2c1ncn2C1OC(CO)C(O)C1O (stereo unspecified)
T/C [4]: 130 % of control | survivor count [9]: 2 of 6 | T/C (dose: 400.0 mg/kg/injection, schedule: Q04DX003 (ip), vehicle: saline with Tween-80): 128 % of control

CCn1nccc1N
survivor count [7]: 0 of 6 | survivor count [2]: 0 of 6 | survivor count [11]: 0 of 6

CC(C)=C(Nc1ccccc1)NC(C)C
T/C [12]: 128 % of control | survivor count [12]: 0 of 6 | survivor count (dose: 100.0 mg/kg/injection, schedule: Q01DX005 (ip), vehicle: saline): 0 of 5 | survivor count (dose: 200.0 mg/kg/injection, schedule: Q01DX005 (ip), vehicle: saline): 0 of 5

CC1(C=O)CCCC2(C)[C@@H]1CCC13CC(CC[C@H]12)C(C(=O)O)C3 (stereo partly specified)
survivor count (dose: 1.63 mg/kg/injection, schedule: Q01DX005 (ip), vehicle: Klucel (hydroxypropylcellulose) (HPC)): 6 of 6

CC1(C)OC(=O)C(=CN(C2CCCCC2)C2CCCCC2)C(=O)O1
survivor count [8]: 6 of 6

O=C([O][Hg][C](F)(F)F)C(F)(F)F
survivor count (dose: 6.25 mg/kg/injection, schedule: Q04DX003 (ip), vehicle: saline): 3 of 6

CCc1ccccc1N1CCN(C(=O)c2cc(OC)c(OC)c(OC)c2)CC1
T/C (dose: 100.0 mg/kg/injection, schedule: Q01DX009 (ip), vehicle: Klucel (hydroxypropylcellulose) (HPC)): 132 % of control | T/C (dose: 150.0 mg/kg/injection, schedule: Q04DX003 (ip), vehicle: saline with Tween-80): 126 % of control | survivor count (dose: 200.0 mg/kg/injection, schedule: Q01DX009 (ip), vehicle: saline): 6 of 6 | survivor count (dose: 400.0 mg/kg/injection, schedule: Q01DX009 (ip), vehicle: Klucel (hydroxypropylcellulose) (HPC)): 5 of 6 | survivor count (dose: 400.0 mg/kg/injection, schedule: Q01DX009 (ip), vehicle: saline): 6 of 6

C=C1C(=O)OC(CCCCCCCCCCCCCC(C)=O)[C@H]1C(=O)O (stereo partly specified)
survivor count (dose: 80.0 mg/kg/injection, schedule: Q01DX005 (ip), vehicle: Klucel (hydroxypropylcellulose) (HPC)): 0 of 6

Cc1ccc(SCC#CC#CCS(=O)c2ccc(C)cc2)cc1 (stereo unspecified)
survivor count [11]: 4 of 6

CCC[CH2][Sn]([CH2]CCC)([CH2]CCC)[C]1(CCCC2CO2)SCCCS1 (stereo unspecified)
survivor count [3]: 6 of 6 | survivor count [4]: 4 of 6 | survivor count [5]: 0 of 6

[Cl][Cu][Cl]
survivor count (dose: 12.5 mg/kg/injection, schedule: Q04DX003 (ip), vehicle: saline): 3 of 6
